Test results published in paper PMC10362501.
Results are given in words; binding and its absence hold for the method and conditions named. Binding seen in cells or lysates may run through a third protein. A yes stands for co-enrichment or nearness to the bait. Other partners may have been found. Where a sequence is shown, tags or fusion partners need not be part of it.

Protein sequences, listed by entry. Tags and fused reporters are not part of them.
UniProt P08238: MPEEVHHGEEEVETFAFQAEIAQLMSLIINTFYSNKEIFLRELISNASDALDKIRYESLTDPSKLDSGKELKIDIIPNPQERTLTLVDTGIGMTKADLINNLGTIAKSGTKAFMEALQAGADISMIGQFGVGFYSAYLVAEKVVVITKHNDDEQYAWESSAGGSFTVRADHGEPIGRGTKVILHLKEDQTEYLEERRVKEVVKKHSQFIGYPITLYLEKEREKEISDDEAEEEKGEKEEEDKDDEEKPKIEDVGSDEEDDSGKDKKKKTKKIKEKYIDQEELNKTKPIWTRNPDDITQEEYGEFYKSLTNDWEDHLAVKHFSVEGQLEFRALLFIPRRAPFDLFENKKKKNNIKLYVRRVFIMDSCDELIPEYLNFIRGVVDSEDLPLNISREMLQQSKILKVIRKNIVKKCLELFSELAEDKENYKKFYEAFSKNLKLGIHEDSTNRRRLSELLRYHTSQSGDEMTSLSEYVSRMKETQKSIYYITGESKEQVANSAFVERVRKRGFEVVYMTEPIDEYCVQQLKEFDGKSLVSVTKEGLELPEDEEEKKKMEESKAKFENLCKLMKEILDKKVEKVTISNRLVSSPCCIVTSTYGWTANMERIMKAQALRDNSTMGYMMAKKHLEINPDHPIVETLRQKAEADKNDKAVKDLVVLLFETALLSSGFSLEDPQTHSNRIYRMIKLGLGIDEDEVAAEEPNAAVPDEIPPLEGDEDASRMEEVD
UniProt Q96AC1: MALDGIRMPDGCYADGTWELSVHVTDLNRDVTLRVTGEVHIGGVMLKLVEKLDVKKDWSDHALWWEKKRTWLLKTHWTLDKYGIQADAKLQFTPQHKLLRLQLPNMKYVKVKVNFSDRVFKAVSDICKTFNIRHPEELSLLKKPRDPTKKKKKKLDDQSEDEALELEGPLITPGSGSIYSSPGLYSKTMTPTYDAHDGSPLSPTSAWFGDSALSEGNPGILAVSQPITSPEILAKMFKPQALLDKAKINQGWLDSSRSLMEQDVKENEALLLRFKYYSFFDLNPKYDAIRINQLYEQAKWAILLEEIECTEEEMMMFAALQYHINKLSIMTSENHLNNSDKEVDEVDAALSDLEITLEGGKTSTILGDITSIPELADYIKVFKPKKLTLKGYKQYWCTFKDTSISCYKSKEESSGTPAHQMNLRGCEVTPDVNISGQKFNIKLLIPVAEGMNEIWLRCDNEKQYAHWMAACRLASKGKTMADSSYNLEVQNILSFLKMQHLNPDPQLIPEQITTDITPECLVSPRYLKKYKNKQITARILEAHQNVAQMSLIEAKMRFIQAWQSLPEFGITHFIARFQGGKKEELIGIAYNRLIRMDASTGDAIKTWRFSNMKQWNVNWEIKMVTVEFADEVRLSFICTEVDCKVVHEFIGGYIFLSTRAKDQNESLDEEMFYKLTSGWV
UniProt P13533: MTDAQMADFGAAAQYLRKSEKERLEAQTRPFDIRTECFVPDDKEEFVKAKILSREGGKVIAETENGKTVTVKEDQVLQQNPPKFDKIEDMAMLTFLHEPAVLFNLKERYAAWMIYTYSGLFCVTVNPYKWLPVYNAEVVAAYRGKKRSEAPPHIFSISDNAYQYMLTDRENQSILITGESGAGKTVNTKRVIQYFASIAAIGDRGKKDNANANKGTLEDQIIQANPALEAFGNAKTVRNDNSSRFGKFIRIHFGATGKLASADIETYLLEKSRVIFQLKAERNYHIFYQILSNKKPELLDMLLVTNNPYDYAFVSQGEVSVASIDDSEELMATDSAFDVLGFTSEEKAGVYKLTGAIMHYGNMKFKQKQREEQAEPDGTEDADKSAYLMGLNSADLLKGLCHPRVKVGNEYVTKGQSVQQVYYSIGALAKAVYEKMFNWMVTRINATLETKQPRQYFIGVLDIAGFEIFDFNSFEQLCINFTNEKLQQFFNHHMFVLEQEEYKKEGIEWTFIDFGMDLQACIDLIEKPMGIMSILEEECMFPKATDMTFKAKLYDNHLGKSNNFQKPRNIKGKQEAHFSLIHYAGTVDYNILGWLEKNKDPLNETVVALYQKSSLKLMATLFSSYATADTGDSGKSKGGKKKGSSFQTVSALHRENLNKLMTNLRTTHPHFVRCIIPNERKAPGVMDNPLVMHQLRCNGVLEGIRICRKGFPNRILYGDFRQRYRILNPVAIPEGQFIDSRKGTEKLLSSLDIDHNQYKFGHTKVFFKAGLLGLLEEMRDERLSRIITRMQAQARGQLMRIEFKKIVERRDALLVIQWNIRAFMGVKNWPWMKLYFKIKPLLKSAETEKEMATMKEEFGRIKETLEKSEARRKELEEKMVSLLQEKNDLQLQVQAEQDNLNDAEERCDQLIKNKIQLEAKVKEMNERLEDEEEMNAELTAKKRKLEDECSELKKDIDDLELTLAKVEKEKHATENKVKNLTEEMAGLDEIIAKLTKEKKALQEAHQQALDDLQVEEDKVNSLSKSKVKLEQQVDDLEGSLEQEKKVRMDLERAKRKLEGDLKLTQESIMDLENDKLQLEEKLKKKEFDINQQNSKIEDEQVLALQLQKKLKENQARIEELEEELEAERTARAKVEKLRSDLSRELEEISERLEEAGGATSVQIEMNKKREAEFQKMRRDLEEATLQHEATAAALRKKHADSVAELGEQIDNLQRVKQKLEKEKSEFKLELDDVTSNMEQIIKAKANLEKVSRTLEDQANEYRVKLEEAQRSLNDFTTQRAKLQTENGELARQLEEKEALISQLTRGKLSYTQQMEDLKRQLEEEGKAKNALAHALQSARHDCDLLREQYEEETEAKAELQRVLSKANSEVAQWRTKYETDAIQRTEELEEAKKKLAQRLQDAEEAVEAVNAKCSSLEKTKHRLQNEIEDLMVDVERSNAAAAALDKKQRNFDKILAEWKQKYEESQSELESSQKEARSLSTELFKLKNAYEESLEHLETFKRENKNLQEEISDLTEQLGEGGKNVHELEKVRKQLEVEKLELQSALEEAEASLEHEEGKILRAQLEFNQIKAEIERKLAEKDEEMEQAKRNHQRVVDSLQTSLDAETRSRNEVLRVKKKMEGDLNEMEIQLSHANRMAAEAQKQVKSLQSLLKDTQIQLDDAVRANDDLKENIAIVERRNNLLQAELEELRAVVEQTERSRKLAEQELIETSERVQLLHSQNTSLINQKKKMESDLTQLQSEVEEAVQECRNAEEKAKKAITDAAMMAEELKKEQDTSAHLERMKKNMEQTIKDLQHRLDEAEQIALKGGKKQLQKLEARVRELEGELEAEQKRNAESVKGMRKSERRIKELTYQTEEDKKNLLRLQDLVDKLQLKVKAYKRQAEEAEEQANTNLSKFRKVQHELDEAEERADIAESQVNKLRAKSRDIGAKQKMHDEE

Target: T1, UNC45B-FLAG (human) (UniProt Q8IWX7)
T1 sequence: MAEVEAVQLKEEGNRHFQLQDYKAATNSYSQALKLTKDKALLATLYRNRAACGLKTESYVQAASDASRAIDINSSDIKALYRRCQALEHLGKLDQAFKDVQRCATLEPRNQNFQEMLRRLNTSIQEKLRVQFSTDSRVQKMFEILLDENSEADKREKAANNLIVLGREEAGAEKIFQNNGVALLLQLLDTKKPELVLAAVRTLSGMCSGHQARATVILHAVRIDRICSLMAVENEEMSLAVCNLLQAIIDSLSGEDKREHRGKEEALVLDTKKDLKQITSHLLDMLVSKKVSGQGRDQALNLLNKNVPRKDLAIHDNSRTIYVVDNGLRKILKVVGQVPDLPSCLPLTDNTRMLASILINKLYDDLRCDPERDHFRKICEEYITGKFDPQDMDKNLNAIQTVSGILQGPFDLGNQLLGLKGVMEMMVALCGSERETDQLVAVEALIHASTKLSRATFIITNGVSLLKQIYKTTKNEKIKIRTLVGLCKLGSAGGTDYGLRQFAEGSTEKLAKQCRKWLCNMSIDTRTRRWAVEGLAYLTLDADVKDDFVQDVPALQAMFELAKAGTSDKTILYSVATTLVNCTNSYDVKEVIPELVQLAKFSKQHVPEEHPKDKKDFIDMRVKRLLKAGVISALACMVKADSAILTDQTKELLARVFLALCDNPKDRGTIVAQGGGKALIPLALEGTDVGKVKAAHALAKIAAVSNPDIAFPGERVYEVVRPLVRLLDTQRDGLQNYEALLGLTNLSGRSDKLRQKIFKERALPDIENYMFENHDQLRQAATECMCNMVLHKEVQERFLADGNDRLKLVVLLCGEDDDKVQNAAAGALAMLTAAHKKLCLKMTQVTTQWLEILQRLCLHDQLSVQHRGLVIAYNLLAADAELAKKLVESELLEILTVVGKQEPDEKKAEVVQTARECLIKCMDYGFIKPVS
Assay: affinity purification with mass spectrometry; co-IP of UNC45B-FLAG from lysates of UNC45B-FLAG-CMs (WT-CMs as control), shotgun proteomic identification by MS; lysis buffer 50 mM Tris-HCl pH 7.5, 1 mM EDTA, 150 mM NaCl, 1% Triton X-100, 10% glycerol, 1 mM PMSF

Substance	binding
HSP70	binds
HSP90AA1 (from UniProt P07900 1-732)	binds
HSP90AB1 (from UniProt P08238 1-724)	binds
KINDLIN2 (from UniProt Q96AC1 1-680)	binds
muscle myosin MYH6 (from UniProt P13533 1-1939)	binds
